B1: il2ra_site1_1z92_sap_13_mot_HHH_b1_04883_af2_000000041_0001_20_37_H_._HEEHE_3044_0001_0000100020_0000001_0_0001 (protein)
chain: SSSSSDEEEAEEVVERLVEEFGLSEEDKEALEKDAEAALRLGLSEKSIELALHRFARLLGSSSSS
B2: il2ra_site2_3nfp_sap_11_mot_HHH_b2_04859_000000206_0001_40_55_H_._HHH_b2_07245_0001_0000600015_0000001_0_0001_af2pred_0001_1_af2pred_swapped (protein)
chain: SSSSSEDEEEVEKLLKEAEKIEDEHEVFAILSLAIEIAIKSRNEELLEEILEVANELRERSSSSS
B3: il2ra_site2_2erj_sap_27_mot_3b06bd03f1c6bceadc68eab912867b79_0001_000000296_0001_36_50_H_._HHH_b1_03694_0001_0000600025_0000001_0_0001 (protein)
chain: SSSSSDREEFERVAELLARAAHIEDEEEVEKLLKEAEKIAEELNDEFAKRYVEFARRSYSSSSSS
B4: il2ra_site2_2erj_sap_17_mot_HHH_b2_05198_af2_000000162_0001_40_52_H_._HHH_b1_07298_0002_0000300014_0000001_0_0001 (protein)
chain: SSSSSEHYERVIELLVKAIELAREGDEEEAKEVLREAEEIAEEANDPYTLRYLQLAAKALSSSSS
B5: il2ra_site2_3nfp_sap_7_mot_HHH_b2_00746_000000285_0001_20_36_H_._HHH_b2_00413_af2_0001_0000200017_0000001_0_0001 (protein)
chain: SSSSDEVEELLREIRELLEEGDTYEAAQLLVRVSEIAAKLGDPELVKIVLELYKILKEKASSSSS
B6: il2ra_site2_3nfp_sap_24_mot_HHH_b1_06174_af2_000000017_0001_40_57_H_._3020bb65e3c0c4c1750efda2a61ed53f_0001_1_0001_0000100014_0000001_0_0001_af2pred_0001_af2pre … (protein)
chain: SSSSDEEEEEVKRLLEEAKELLKEGDPEEARRVLERAAKIAFELGNIELWVEIAELRQKLGSSSS
B7: il2ra_site2_3nfp_sap_15_mot_HHH_b2_06150_000000217_0001_39_53_H_._HHH_b2_00212_0001_0000300027_0000001_0_0001_af2pred_0001_1_af2pred_swapped (protein)
chain: DLTELIRELFESGDPDLQEIAHLLWLARVEGDEEVVELIEELIEELRKGELPPEEVRRLVEELLR
B8: il2ra_site2_3nfp_sap_17_mot_HHH_b2_05281_000000198_0001_39_56_H_._HHH_b1_05310_af2_0001_0000800014_0000001_0_0001 (protein)
chain: SSSSSDVEELLEEAEELIEDGNPYEAAQVLLEAAELIARRGDEELARILLELFELLQRAGSSSSS
B9: il2ra_site1_1z92_normal_mot_HHH_b1_08190_000000249_0001_1_19_H_._2c3364830c66fee1b0e8427e812e8af0_0001_0001_0000100002_0000001_0_af2pred_0001_af2pred (protein)
chain: SDEFLERQLKRKLELGNIEKFAKHLFKLLEIAAGDPEEAEEILRRLLEAAGVPPEVIEKILEEAK
B10: il2ra_site1_3nfp_normal_mot_ems_3hC_775_af2_000000149_0001_42_60_H_._592181844b486e9d3e72ee682cc18b0b_0001_0001_0000400025_0000001_0 (protein)
chain: DEERLEELAEELGVPPQARHLAKLILRARKQGFPPEEAERAVERYARLLGIPPEVIELAKELVRR
B11: il2ra_site2_3nfp_sap_16_mot_HHH_b2_05976_000000001_0001_22_38_H_._c19e5fdadaa67d7d98d76bf2a1bb890a_0001_af2_0001_0000400037_0000001_0_0001 (protein)
chain: SSSSDDVEEYLRAALALARRAIKQGDEELAEKILRLIAKSAEDAKDEEALKEAEELLREVGSSSS
B12: il2ra_site2_3nfp_normal_mot_HHH_b1_06797_000000164_0001_24_40_H_._HHH_b1_07797_0001_0000200020_0000001_0 (protein)
chain: SSSSSKVEEYLEAVLLVAELALEEGDEEAARRQLRLAIEAAELLGNPELLEKLEELLEEINSSSS
B13: il2ra_site1_2b5i_normal_mot_HHH_b2_04910_000000118_0001_1_19_H_._HHH_b2_03843_0001_0000400028_0000001_0_af2pred_dldesign_0_af2pred (protein)
chain: SSSSSPECEEALRLFLKANELFQAGKEEEAKKLLEEALEKAKKGKCNLLVKIIEAALKEISSSSS
B14: il2ra_site1_3nfp_sap_21_mot_HHH_b2_02066_af2_000000034_0001_1_16_H_._c2845cfc7c062bbeb7cd94dd36b2ebbf_0001_af2_0001_0000100001_0000001_0_0001_af2pred_0001_af2pr … (protein)
chain: SSSEEELQELFKLALELHKKLTNPEARQVVIHAMALVARATRTKDPELERRAREAIEEAEELDSS
B15: il2ra_site1_1z92_sap_14_mot_0152819cca26c81f8eead0111e16a660_0001_000000247_0001_36_50_H_._d46665258beb4c452e319e322a52fdaa_0001_0001_0000400033_0000001_0_0001 (protein)
chain: SSSSSLEKNARIAVRVAVEIAGLSEEQKELLEELAEELIREGLDALELIRELDRLAVELASSSSS
B16: il2ra_site1_3nfp_normal_mot_HHH_b2_05589_af2_000000178_0001_1_18_H_._HHH_b2_01005_af2_0001_0000200018_0000001_0_af2pred_0001_af2pred_1 (protein)
chain: SSSSSDELRELNKLLKEARELRKEGDPEEARRVLEEALELAEELGDELALEALRLLLERTSSSSS
B17: il2ra_site1_1z92_normal_mot_HHH_b2_06396_000000229_0001_39_55_H_._HEEHE_3358_0001_0000200013_0000001_0 (protein)
chain: DEEHDVERLTRLIEEIAGVPSVEVTFEDGEYTLEVEGDDEAAELARDAFRAFAKLLGVPFTVEKE
B18: il2ra_site1_3nfp_normal_mot_HHH_b1_01231_af2_000000247_0001_40_57_H_._HHH_b2_05487_af2_0001_0000200012_0000001_0_af2pred_0001_1_af2pred_swapped (protein)
chain: SSSSSSKLELLEKALELSARGNLEEAERLLEELEEELEEKGDERALRRVRFMLRSIEHVRSSSSS
B19: il2ra_site1_1z92_sap_10_mot_HHH_b1_00451_000000274_0001_21_37_H_._HEEHE_2072_0001_0000100014_0000001_1_0001_af2pred_0001_af2pred (protein)
chain: DDEEEIEHFVRLAAKTAGVPSVTWSEHNGELHVTINGDDEAAERLAKLLEKFAKASGLKVEVEIR
B20: il2ra_site1_1z92_normal_mot_6c2800a769814540b5b47941e710ff28_0001_af2_000000005_0001_35_49_H_._HEEHE_2850_af2_0001_0000500023_0000001_0 (protein)
chain: DREEKLKEELERLVKQAGVPSVEVEVKDGEIRVTIEGDDEHVRSAERIVERLARDAQVPVEFETG
B21: il2ra_site1_3nfp_sap_23_mot_HHH_b1_07396_000000043_0001_40_57_H_._HHH_b1_00305_0001_0000700020_0000001_0_0001_af2pred_0001_af2pred_1_swapped (protein)
chain: DIVEELVELALEENSPRLLERIFRDLERTLGDPEEAERRLIEIIAKLLGTPPEEAEKIVEEVIGP
B22: il2ra_site1_1z92_sap_9_mot_ffc8530cc3987bf120756695d8da17cc_0001_af2_000000243_0001_1_16_H_._HHH_b2_00297_af2_0001_0000200036_0000001_0_0001_af2pred_dldesign_0_ … (protein)
chain: SSSSSSPADELVDRLVEELKLPESARKDLRKYAEMLEAKGASPEQAERNLRKAADFMRKLSSSSS
B23: il2ra_site2_3nfp_normal_mot_HHH_b2_06150_000000217_0001_39_53_H_._HHH_b1_08710_0001_0000300029_0000001_0 (protein)
chain: SSSSSSDAEEEVEELLEEAKRIDDPEERREVLAKATKIAWENRDSELFFLIAEVLFKLVSSSSSS
B24: il2ra_site1_3nfp_sap_12_mot_c4dd8cf0dac887b0ed015202f8c0b8fc_0001_af2_000000043_0001_17_34_H_._HHH_b2_07872_af2_0001_0000100002_0000001_0_0001 (protein)
chain: GLEEVKKLVEELGDPQLRHFVKLLEHALRAIGDPIAREMAKRLFELLRRNDEEAQEFVKEVVEKL

The other results are listed elsewhere or left out.

This experiment deals with il2ra, P01589. In words: yeast display titration.
Turning to B1, the “apparent Kd” value is “inactive: no binding seen”.

For B2, the “apparent Kd” value was “inactive: no binding seen”.

In the case of B3, the “apparent Kd” value is “inactive: no binding seen”.

Turning to B4, the “apparent Kd” value is “inactive: no binding seen”.

B5: the “apparent Kd” value is “inactive: no binding seen”.

B6: the “apparent Kd” value is “inactive: no binding seen”.

In the case of B7, the “apparent Kd” value is “inactive: no binding seen”.

With B8, the “apparent Kd” value was “inactive: no binding seen”.

For B9, the “apparent Kd” value is “inactive: no binding seen”.

Regarding B10, the “apparent Kd” value was “inactive: no binding seen”.

As for B11, the “apparent Kd” value is “inactive: no binding seen”.

B12: the “apparent Kd” value is “inactive: no binding seen”.

B13: the “apparent Kd” value was “inactive: no binding seen”.

For B14, the “apparent Kd” value was “inactive: no binding seen”.

As to B15, the “apparent Kd” value was “inactive: no binding seen”.

On to B16, for which the “apparent Kd” value was “inactive: no binding seen”.

As to B17, the “apparent Kd” value is “inactive: no binding seen”.

Turning to B18, the “apparent Kd” value is “inactive: no binding seen”.

Take B19: the “apparent Kd” value was “inactive: no binding seen”.

In the case of B20, the “apparent Kd” value is “inactive: no binding seen”.

For the molecule B21, the “apparent Kd” value was “inactive: no binding seen”.

Turning to B22, the “apparent Kd” value was “inactive: no binding seen”.

B23: the “apparent Kd” value was “inactive: no binding seen”.

For the molecule B24, the “apparent Kd” value is “inactive: no binding seen”.

Values taken from article PMC10163288.
